Results from patent US20230158032A1, “PHARMACEUTICAL COMBINATION FOR THE TREATMENT OF MYELOPROLIFERATIVE NEOPLASMS” (Universitätsklinikum Jena, priority 2020, published 2023).
Results are given in words; binding and its absence hold for the method and conditions named. For some of these results: In cells and extracts the contact can be indirect. Some entries that bind do so weakly or less than the wild type.

The chains behind the UniProt entries cited, without tags or fusion partners. Where a name states a change or a piece, a line headed by the entry shows the natural chain unless it says otherwise. Residues count along the entry.
UniProt Q62120: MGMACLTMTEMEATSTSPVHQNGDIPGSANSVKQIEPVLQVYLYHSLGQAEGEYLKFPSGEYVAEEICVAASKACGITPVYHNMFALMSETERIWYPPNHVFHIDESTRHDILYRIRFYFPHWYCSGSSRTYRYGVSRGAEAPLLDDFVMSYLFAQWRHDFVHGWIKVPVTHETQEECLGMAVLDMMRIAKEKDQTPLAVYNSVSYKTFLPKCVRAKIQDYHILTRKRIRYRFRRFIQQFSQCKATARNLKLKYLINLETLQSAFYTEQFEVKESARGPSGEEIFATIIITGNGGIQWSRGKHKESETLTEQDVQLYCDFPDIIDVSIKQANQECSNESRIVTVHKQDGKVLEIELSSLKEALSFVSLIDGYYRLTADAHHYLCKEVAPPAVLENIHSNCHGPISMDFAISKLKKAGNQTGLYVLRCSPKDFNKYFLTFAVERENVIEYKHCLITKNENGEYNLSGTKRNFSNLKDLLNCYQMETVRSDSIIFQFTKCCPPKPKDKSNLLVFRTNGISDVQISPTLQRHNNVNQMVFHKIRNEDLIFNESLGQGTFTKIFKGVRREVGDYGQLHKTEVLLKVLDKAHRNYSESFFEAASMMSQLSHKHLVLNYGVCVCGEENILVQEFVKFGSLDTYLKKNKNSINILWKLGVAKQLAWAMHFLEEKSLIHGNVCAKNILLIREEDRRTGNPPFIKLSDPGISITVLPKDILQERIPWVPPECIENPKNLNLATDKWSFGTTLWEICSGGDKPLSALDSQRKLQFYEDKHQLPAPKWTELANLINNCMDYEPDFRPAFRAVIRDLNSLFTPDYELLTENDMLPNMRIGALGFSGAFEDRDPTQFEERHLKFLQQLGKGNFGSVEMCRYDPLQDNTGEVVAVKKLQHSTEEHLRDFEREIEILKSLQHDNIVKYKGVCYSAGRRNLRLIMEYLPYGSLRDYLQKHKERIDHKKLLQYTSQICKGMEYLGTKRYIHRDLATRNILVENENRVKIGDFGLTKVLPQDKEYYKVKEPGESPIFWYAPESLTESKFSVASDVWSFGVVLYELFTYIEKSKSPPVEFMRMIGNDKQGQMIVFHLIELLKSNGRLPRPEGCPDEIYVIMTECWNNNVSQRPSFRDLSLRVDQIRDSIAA
UniProt P63085, residues 2-358: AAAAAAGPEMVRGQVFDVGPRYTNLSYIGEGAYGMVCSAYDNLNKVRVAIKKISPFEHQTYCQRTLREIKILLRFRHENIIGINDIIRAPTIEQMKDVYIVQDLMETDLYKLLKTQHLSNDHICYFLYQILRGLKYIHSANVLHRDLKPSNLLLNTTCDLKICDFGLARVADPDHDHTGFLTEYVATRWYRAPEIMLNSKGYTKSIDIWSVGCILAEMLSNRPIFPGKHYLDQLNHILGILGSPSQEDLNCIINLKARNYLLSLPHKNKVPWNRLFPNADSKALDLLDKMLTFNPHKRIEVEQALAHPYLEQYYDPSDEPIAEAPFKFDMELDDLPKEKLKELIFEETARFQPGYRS
UniProt P62960, residues 2-322: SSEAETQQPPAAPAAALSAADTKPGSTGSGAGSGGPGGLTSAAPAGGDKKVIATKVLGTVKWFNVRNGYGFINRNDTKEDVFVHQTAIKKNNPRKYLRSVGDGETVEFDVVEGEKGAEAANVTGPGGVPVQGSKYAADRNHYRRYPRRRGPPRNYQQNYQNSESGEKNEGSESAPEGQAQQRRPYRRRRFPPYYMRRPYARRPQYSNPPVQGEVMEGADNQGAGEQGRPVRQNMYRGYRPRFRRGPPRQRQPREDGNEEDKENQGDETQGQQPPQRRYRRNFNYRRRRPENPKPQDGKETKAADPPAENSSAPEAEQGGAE

How the values were obtained:
[1] = molecular target: Jak2V617F (mutated Jak2 kinase) expressed in murine Ba/F3 cells (murine) (UniProt Q62120); experiment: immunoprecipitation of Jak2 from murine Jak2V617F cells, western blot
[2] = molecular target: Jak2V617F (mutated Jak2 kinase) expressed in murine Ba/F3 cells (murine) (UniProt Q62120); experiment: co-immunoprecipitation and immunofluorescence co-localization in Jak2V617F cells
[3] = molecular target: Mapk1, murine, endogenous in Ba/F3 Jak2V617F cells (murine) (UniProt P63085); experiment: Ybx1 immunoprecipitation / interactome in Jak2V617F cells
[4] = molecular target: Mapk1, murine, endogenous in Ba/F3 Jak2V617F cells (murine) (UniProt P63085); experiment: Ybx1 affinity purification with quantitative interaction proteomics; Ybx1 immunoprecipitation and western blot with ERK1/2 antibody

Measured: binding

Y-box binding protein 1 (Ybx1), murine, endogenous in Ba/F3 Jak2V617F cells (from UniProt P62960 2-322)
binds: all assays above
